PubChem BioAssay AID504444 (National Center for Advancing Translational Sciences (NCATS), 2011)
The whole screen tested about 360,000 compounds, of which about 7,500 (2.1%) were called active. The inconclusive results got no clear call from the source; some entries with a clear call stand among them for comparison. Calls come from the whole dose curve; as a rule, active = well fitted inhibition curve with a large enough effect; inconclusive = small, poorly fitted or top-dose-only effect, or effect the other way; inactive = flat fitted curve, though single readings scatter. Potencies of inconclusive entries are doubtful fits and often do not repeat.
% is set by controls: 0 for no effect and ±100 for the full control effect; potency is the fitted concentration of half-maximal effect.

Experiment: Nrf2 qHTS screen for inhibitors; note: nearly all actives have a fitted effect of over 60% in size
Settings: A549 ARE-Fluc reporter, luciferase luminescence, 18-24 h; activity change, negative = inhibition: at 46 µM (top of the series)
Outline: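 Cells were seeded and rested 2 h, then exposed to compounds for 18-24 h. CellTiter-Fluor was read first as a viability measure. BugLite was added 15 min before the final luminescent read of ARE-luciferase activity in A549 cells.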
With `CN(C)C(=O)CCc1ccc2c3c([nH]c2c1)[C@]1(CCc2ccccc2)[C@@H](C(=O)N2CCCCC2)C[C@H](CC(=O)NC(C)(C)C)C(=O)N1CC3` the Potency was inconclusive: 11.6 µM [falling, partial curve, poor fit]. In the case of `CCOc1cc(C(=O)Nc2cc3c(cc2N2CCCC2)n(C)c(=O)n3C)cc(OCC)c1OCC`, the Potency was inconclusive: 0.517 µM [falling, full curve, poor fit]. With `CC1CCN(S(=O)(=O)c2nnc(NC(=O)c3ccc(C(C)C)cc3)s2)CC1` the Potency was inconclusive: 4.61 µM [activator, full curve]. For `O=C1c2ccccc2NC2CCCCCN12` (centres undefined), the Potency was “inactive”. With `O=c1c2c3nc4ccccc4nc3n(/N=C/c3ccco3)c2ncn1CCC1=CCCCC1` the Potency was “inactive”. With `CCC(C)[C@H]1COCCS(=O)(=O)N1Cc1ccccc1` (some centres undefined) the Potency was “inactive”. With `O=C(c1ccc(N2CCCCC2)c([N+](=O)[O-])c1)N1CCOCC1` the Potency was “inactive”. In the case of `CN(Cc1nc(-c2cnccn2)no1)C1CC(C)(C)NC(C)(C)C1`, the Potency was inconclusive: 9.2 µM [activator, partial curve]. With `O=C(CSc1oc(-c2ccco2)nc1S(=O)(=O)c1ccc(Br)cc1)c1ccccc1` the activity change, negative = inhibition was inactive: 4.84% [at 9.27 µM]. With `CCCCn1c(=O)c2oc3ccccc3c2n(Cc2cccc(F)c2)c1=O` the Potency was inconclusive: 29.1 µM [activator, single point]. In the case of `Cc1ccc(S(=O)(=O)c2nc(Nc3ccccc3)sc2Cl)cc1`, the Potency was inconclusive: 20.6 µM [falling, single point]. For `C=C1CCC2C(C)(C)[C@@H](O)CC[C@@]2(C)[C@@H]1COc1ccc2ccc(=O)oc2c1` (some centres undefined), the Potency was inconclusive: 14.6 µM [falling, partial curve, poor fit]. In the case of `CC(CN1CCCCC1)OC(=O)C(C)(c1ccccc1)c1ccccc1` (centres undefined), the Potency was inconclusive: 18.4 µM [activator, partial curve]. For `O=C(NCC1CCCO1)/C(=C/c1cn(-c2ccccc2)nc1-c1cccnc1)NC(=O)c1ccccc1` (centres undefined), the Potency was “inactive”. In the case of `CCC(C)Cn1c(/C=C/c2ccccc2)nc2ccccc21` (centres undefined), the Potency was inconclusive: 16.4 µM [activator, partial curve]. With `COc1ccc(N2CCN(CC(=O)c3ccc(Cl)cc3)CC2)cc1` the Potency was inconclusive: 0.0046 µM [falling, full curve, poor fit]. In the case of `Cc1ccc(Nc2ncc(C(=O)N3CCN(c4ccc(F)cc4)CC3)c3ccccc23)cc1Cl`, the activity change, negative = inhibition was inactive: 13.8% [at 9.27 µM]. With `Cc1cc(C)c2nc(N3CCN(C(=O)c4cccs4)CC3)sc2c1` the Potency was inconclusive: 25.9 µM [falling, single point]. For `Fc1ccc2c(c1)C(c1ccc(N3CCOCC3)cc1)=NNC(c1cccs1)=N2`, the Potency was inconclusive: 11.6 µM [falling, partial curve]. With `COc1ccc(C(=O)Nc2ccc3c(c2)OCCO3)cc1` the Potency was inconclusive: 0.291 µM [activator, full curve, poor fit]. With `CN(C)S(=O)(=O)N1CCC(Oc2cccc(C(=O)N3CCCCCC3)c2)CC1` the Potency was inconclusive: 25.9 µM [falling, single point]. In the case of `CN(C)CCCNS(=O)(=O)c1ccc(NC2CCCCCC2)c([N+](=O)[O-])c1`, the Potency was inconclusive: 29.1 µM [falling, single point]. For `O=C(NC12CC3CC(CC(C3)C1)C2)N1CCN(S(=O)(=O)c2ccc(Cl)cc2)CC1`, the Potency was inconclusive: 8.2 µM [falling, partial curve, poor fit]. In the case of `COc1ccc(/C=C/C(=O)OCC(=O)N2CC(=O)Nc3ccccc32)cc1`, the Potency was inconclusive: 6.51 µM [activator, partial curve, poor fit]. For `COc1cccc(CNS(=O)(=O)c2cc3[nH]c(=O)c(=O)[nH]c3cc2C)c1`, the Potency was inconclusive: 25.9 µM [activator, partial curve, poor fit]. With `COC(=O)c1cc(C(=O)N2CCN(c3ccccc3OC)CC2)cc([N+](=O)[O-])c1` the Potency was inconclusive: 23.1 µM [activator, single point]. With `Nc1ccc2c3c(cccc13)C(=O)N(c1ccccc1)C2=O` the Potency was “inactive”. With `O=C(Cn1nc(-c2ccccc2)c2ccccc2c1=O)Nc1ccc2c(c1)nc1n2CCOC1` the Potency was inconclusive: 29.1 µM [falling, single point]. For `Cc1csc(N/N=C/c2ccccc2F)n1`, the Potency was inconclusive: 8.2 µM [activator, partial curve]. With `COc1ccc(N2CCN(C(=O)c3ccc(Cl)c(S(=O)(=O)N4CCCC4)c3)CC2)cc1` the Potency was inconclusive: 11.6 µM [falling, partial curve]. With `N#CCC(=O)N/N=C/c1cn(Cc2ccc3ccccc3c2)c2ccccc12` the Potency was inconclusive: 18.4 µM [falling, partial curve]. With `CCOC(=O)C1=C(C)Nc2ccccc2N=C1NC(=O)c1cc(C)on1` the Potency was inconclusive: 25.9 µM [falling, single point]. In the case of `COC(=O)CSc1nc2cc(C)ccc2cc1C#N`, the Potency was inconclusive: 23.1 µM [activator, partial curve]. With `CN(CC(=O)Nc1cc(S(=O)(=O)N2CCOCC2)ccc1Cl)C1CCS(=O)(=O)C1` (centres undefined) the Potency was inconclusive: 0.164 µM [activator, full curve, poor fit]. With `Cc1cccnc1NC(=S)NC(=O)/C=C/c1ccco1` the Potency was inconclusive: 20.6 µM [activator, partial curve, poor fit]. For `Cc1ccsc1CN(C(=O)c1oc2ccc(F)cc2c1C)C1CCS(=O)(=O)C1` (centres undefined), the Potency was inconclusive: 25.9 µM [falling, single point]. In the case of `COC(=O)[C@@H]1C[C@H]2CC[C@H](O)C[C@H]2N1Cc1ccc(C(C)(C)C)cc1`, the Potency was inconclusive: 29.1 µM [activator, single point]. In the case of `COc1ccc(S(=O)(=O)N2CCC(n3cnc4ccccc43)CC2)cc1`, the Potency was inconclusive: 20.6 µM [falling, partial curve]. In the case of `Cc1ccc(NC(=O)c2ccccc2NC(=O)c2cccs2)cc1`, the Potency was inconclusive: 14.6 µM [activator, partial curve].
